Source: patent US20240417469A1
Numbering of substitutions follows the chain as printed. No constants are given. Whether binding was seen depends on the method and setting. For part of these data: A result given as binding can be weak or reduced; the word gives no strength.

B1: 153A6B1 chimeric mAb (antibody, V domains shown)
VH: QVQLKESGPGLVQPSQTLSLTCTVSGFSLTSYNIHWVRQPPGKGLEWMGRIRYNGDTSYNSALKSRLSISRDTSKNQVFLKMSSLQTDDTGTYYCTRGPYGGSREPLFDYWGQGVMVTVSS
VL: DIKMTQSPSFLSAAVGDRVTINCKTSQNINKYLNWFQQKLGAAPKLLIYTTNNLQTGIPSRFSGSGSGTDFTLTISSLQPEDVATYFCLQHGSGYTFGAGTKLELK
B2: 192A7B9 chimeric mAb (antibody, V domains shown)
VH: B1 VH with T21N, I34V, I51M, S83N, Y100R, S103Y, R104Y, E105S, P106A
VL: DIQMTQSPSFLSASVGDRVTINCKASQNINRYLNWYQQKLGDAPKVLISIANSLQTGIPSRFSGSGSGTDFTLTISSLQPEDVATYFCLQHNSWYTFGAGTKLELK
B3: 155A9B1 chimeric mAb (antibody, V domains shown)
VH: B1 VH with I34V, I51V, V78A, S83N, T87I, R104S
VL: B1 VL with A14S, T25A, A42E, K45R, G92N

biological target: cynomolgus CD3 protein (cynomolgus); experiment: ELISA, plate-coated CD3

binding | Binder
binds | B1
binds | B2
binds | B3

biological target: mouse CD3 protein (mouse); experiment: ELISA, plate-coated CD3

Binder | binding
B1 | no binding (tested: 15 µg/ml top concentration)
B2 | no binding (tested: 15 µg/ml top concentration)
B3 | no binding (tested: 15 µg/ml top concentration)
